The whole screen tested about 320,000 compounds, of which about 22,000 (6.9%) were called active. This list was built around the results that the source calls inconclusive (neither active nor inactive); the mix of calls is not that of the screen. Calls follow the shape of the dose curve; as a rule, active = well fitted inhibition curve with a large enough effect; inconclusive = small, poorly fitted or top-dose-only effect, or another doubt; inactive = no such curve, though single readings can be large or run the other way. A potency beside an inconclusive call is a rough fit, not a confirmed value.
Assay: Primary qHTS for delayed death inhibitors of the malarial parasite plastid, 96 hour incubation
Conditions: P. falciparum luciferase reporter growth; series mostly up to 28.7 µM; activity change, negative = inhibition: at the top concentration
Outline: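 Cell-based qHTS: luciferase-tagged P. falciparum in erythrocytes (2% hematocrit, 0.05% parasitemia final) incubated with compounds for 96 hours, 37 C, 5% CO2; luciferase detection reagent then added and luminescence measured.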
% is scaled to controls: 0 for no effect and ±100 for the full control effect; potency is read from the fitted curve at half-maximal effect.

Structure (SMILES) | Potency | activity change, negative = inhibition
Cc1ccccc1Cn1nc(C)c(NC(=O)C2c3ccccc3Oc3ccccc32)c1C | inconclusive: 11.7 µM [inhibitor, partial curve, poor fit] | 
N#CC1=C(N)Oc2ccc3ccccc3c2C1c1cccnc1 (stereo unspecified) |  | inactive: 0%
O=C(CCNS(=O)(=O)c1ccccc1C(F)(F)F)N1CCN(c2ccccc2O)CC1 | inconclusive: 18.5 µM [inhibitor, single point] | 
O=C1CC2(CCN(C(=O)C(=O)c3c[nH]c4ccccc34)CC2)Oc2ccccc21 | inconclusive: 20.8 µM [inhibitor, partial curve, poor fit] | 
Cc1cc(C)c(S(=O)(=O)N2CCOC2CNC(=O)C(=O)NCCCN2CCOCC2)c(C)c1 (stereo unspecified) | inconclusive: 11.7 µM [inhibitor, single point] | 
CCOC(=O)c1c(CSc2ccc(C)cc2)oc2ccc(O)cc12 | inconclusive: 11.7 µM [inhibitor, single point] | 
Cc1ccc(OCc2nnc(SCC(=O)Nc3ccc4c(c3)OCO4)n2C)cc1 | inconclusive: 18.5 µM [inhibitor, single point] | 
COCCNC(=O)Cn1c(=O)oc2cc(S(=O)(=O)N3CC(C)CC(C)C3)ccc21 (stereo unspecified) | inconclusive: 10.4 µM [inhibitor, single point] | 
CCc1cc(CNC(=O)C2CCC(=O)N(Cc3cccc(F)c3)C2)on1 (stereo unspecified) | active: 11.7 µM | 
Cc1ccc(Oc2ccccc2NC(=O)C2=COCCO2)cc1 |  | inactive: -11.6%
OCCNCc1cc(Br)ccc1OCc1ccccc1Cl | inconclusive: 2.94 µM [inhibitor, single point] | 
COc1ccc(C(=O)/C=C/Nc2ccc(C)cn2)cc1OC |  | inactive: 24.3%
CCN(CC)c1ccc(S(=O)(=O)N2CCOCC2)cc1NC(=O)CN1CCc2ccccc2C1 | inconclusive: 1.85 µM [inhibitor, full curve] | 
CC(C)N(C1=CC(=O)OC12CCCCC2)C(C)C |  | inactive: -2.77%
CC(C)c1ccccc1OCC(O)CN(CC(O)COc1cccc2ccccc12)C(C)C (stereo unspecified) | inconclusive: 0.657 µM [inhibitor, full curve, poor fit] | 
COc1ccccc1C(=O)Nc1ccc(S(=O)(=O)N2CCCCC2c2cccnc2)cc1 (stereo unspecified) | active: 3.29 µM | 
CCCCc1ccc(CC(=O)Nc2cc(S(=O)(=O)N3CCOCC3)ccc2O)cc1 |  | inactive: 17.3%
CCOC(=O)C1CCCN(c2c(NCc3ccco3)c(=O)c2=O)C1 (stereo unspecified) | inconclusive: 0.738 µM [inhibitor, full curve, poor fit] | 
Cc1nn(C)c(C)c1S(=O)(=O)N(CC(=O)N1CCc2ccccc21)c1ccc(C(C)C)cc1 | inconclusive: 18.5 µM [inhibitor, single point] | 
CC1=C(C(=O)OCc2ccccc2)C(c2ccccc2)NC(=O)N1CCCC(=O)O (stereo unspecified) | inconclusive: 0.0037 µM [inhibitor, full curve] | 
CC(NC(=O)C1CCC(CNc2c(N3CCOCC3)c(=O)c2=O)CC1)c1ccccc1 (stereo unspecified) | active: 13.1 µM | 
O=c1[nH]c(=O)n(Cc2ccccc2)c2nc(-c3ccco3)cc(C(F)(F)F)c12 | active: 5.86 µM | 
COc1cc(OC)cc(C(=O)N2CCN(S(=O)(=O)c3ccc(Cl)s3)CC2)c1 | inconclusive: 10.4 µM [inhibitor, single point] | 
COC(=O)C(NS(=O)(=O)c1ccc(N2CCCC2=O)cc1)c1ccccc1 (stereo unspecified) | inconclusive: 14.7 µM [inhibitor, partial curve, poor fit] | 

Structure (SMILES) | Potency | activity change, negative = inhibition
COc1ccc(OCc2cc(C(=O)NCc3nc(C)cs3)no2)c(Cl)c1 | inconclusive: 18.5 µM [inhibitor, single point] | 
CCOc1ccc(CC(=O)NC2CCN(Cc3ccccc3)CC2)cc1 | inconclusive: 0.117 µM [inhibitor, full curve, poor fit] | 
Cc1cccnc1NC(=S)NC(=O)c1oc2ccccc2c1C |  | inactive: 37.2%
CCn1c(COc2cccc(OC)c2)nnc1SCC(=O)NC1CCCC1 | inconclusive: 0.147 µM [inhibitor, full curve, poor fit] | 
Cc1ccc(Cn2c(SCc3cccnc3)nc3c2c(=O)n(C)c(=O)n3C)cc1 |  | inactive: 20.7%
O=C(Nc1cccnc1)c1cc(-c2cccc(Br)c2)nc2ccccc12 |  | inactive: 0.954%
O=C(/C=C\c1cn(-c2ccccc2)nc1-c1ccccc1)Nc1nccs1 |  | inactive: 21.3%
COc1cccc(N(C(=O)CS(=O)CC(=O)Nc2ccc(F)cc2)C(C(=O)NC2CCCCC2)c2cccs2)c1 (stereo unspecified) | inconclusive: 18.5 µM [inhibitor, single point] | 
CCc1cccc(NC(=O)CNC(=O)N2CC(=O)Nc3ccccc32)c1 |  | inactive: 31%
CCC(C)c1ccccc1NC(=O)c1[nH]c(C)c(C(C)=O)c1C (stereo unspecified) | inconclusive: 18.5 µM [inhibitor, single point] | 
COc1ccc(CCNC(=O)C2CCN(C(=O)c3ccc(Br)cc3)CC2)cc1OC |  | inactive: 218%
Cc1ccc(C(=O)N/N=C/C=C/c2ccccc2)cc1 | active: 1.65 µM | 
COCCn1c(SCC(=O)Nc2ccc(S(=O)(=O)N(C)C)cc2)nc2ccccc21 | active: 4.15 µM | 
Cc1ccccc1OCC(=O)N(CC(C)C)c1c(N)n(CC(C)C)c(=O)[nH]c1=O | inconclusive: 0.0928 µM [inhibitor, full curve, poor fit] | 
CCC(=O)N1CCN(c2ccc(NC(=S)NC(=O)c3cc4ccccc4o3)cc2)CC1 |  | inactive: 2.13%
COc1c(Cl)cc(Cl)cc1CNCCNCCO | inconclusive: 13.1 µM [inhibitor, partial curve, poor fit] | 
COc1cc(C2C3=C(CC(C)(C)CC3=O)NC3=C2C(=O)c2ccccc23)ccc1O (stereo unspecified) |  | inactive: 8.88%
COc1cccc(N/C(SCc2cccc([N+](=O)[O-])c2)=C(/C#N)C(=O)NCc2cccs2)c1 | inconclusive: 11.7 µM [inhibitor, partial curve, poor fit] | 
COc1ccc(-c2cc(C(=O)Nc3ccc(F)cc3F)no2)cc1 | inconclusive: 5.22 µM [inhibitor, partial curve, poor fit] | 
CCOc1ccc(NC(=O)COc2coc(CN3CCc4ccccc4C3)cc2=O)cc1 |  | inactive: -22.4%
CC(C)(C)NC(=O)Cn1ccc(=N)c2ccccc21 |  | inactive: -97.9%
CC(C)(C)Cc1nnc(NC(=O)c2ccco2)s1 | inconclusive: 18.5 µM [inhibitor, single point] | 
COc1ccc(NC(=O)COC(=O)CNS(=O)(=O)c2ccc(F)c(F)c2F)cc1OC |  | inactive: 32.7%
COc1ccc(CCNC(=O)CC(NS(=O)(=O)c2ccc(NC(C)=O)cc2)C(C)C)cc1OC (stereo unspecified) | inconclusive: 11.7 µM [inhibitor, single point] | 

Grouped by structure, those above with two or more sulfur atoms (four)
Structure (SMILES) | Potency | activity change, negative = inhibition
COc1cc(OC)cc(C(=O)N2CCN(S(=O)(=O)c3ccc(Cl)s3)CC2)c1 | inconclusive: 10.4 µM [inhibitor, single point] | 
COc1cccc(N(C(=O)CS(=O)CC(=O)Nc2ccc(F)cc2)C(C(=O)NC2CCCCC2)c2cccs2)c1 (stereo unspecified) | inconclusive: 18.5 µM [inhibitor, single point] | 
COCCn1c(SCC(=O)Nc2ccc(S(=O)(=O)N(C)C)cc2)nc2ccccc21 | active: 4.15 µM | 
COc1cccc(N/C(SCc2cccc([N+](=O)[O-])c2)=C(/C#N)C(=O)NCc2cccs2)c1 | inconclusive: 11.7 µM [inhibitor, partial curve, poor fit] | 

The list continues:

Structure (SMILES) | Potency | activity change, negative = inhibition
COCCCNC(=O)COc1ccc(Br)cc1Cl | inconclusive: 18.5 µM [inhibitor, single point] | 
CN1CCCC(OC(=O)c2ccc(Cl)cc2)C1 (stereo unspecified) |  | inactive: -6.31%
CC1CCN(Cc2c(C(=O)N/N=C/c3cccc(C(F)(F)F)c3)nnn2-c2nonc2N)CC1 | inconclusive: 18.5 µM [inhibitor, single point] | 
CN(C)c1ccc(NC(=O)CSCc2nc3c(nnn3Cc3ccc(F)cc3)c(=O)[nH]2)cc1 | active: 8.28 µM | 
COc1ccccc1N1CCN(C2CCCN(S(=O)(=O)c3ccccc3)C2)CC1 (stereo unspecified) |  | inactive: -28.4%
Cc1ccc2nc(NC(=O)CN3C(=O)NC4(CCCC4)C3=O)sc2c1 |  | inactive: 17.3%
CN1CCN(S(=O)(=O)c2ccc(NC(=O)c3cccc(F)c3)cc2)CC1 |  | inactive: -0.584%
CCOc1ccc(CNC(=O)C2CCN(c3nn4c(=O)cc(C)nc4s3)CC2)cc1 | inconclusive: 11.7 µM [inhibitor, single point] | 
COc1ccccc1C1/C(=C(\O)c2ccc3c(c2)OCCO3)C(=O)C(=O)N1Cc1cccnc1 (stereo unspecified) |  | inactive: 7.68%
COc1ccc(Cl)cc1NC(=O)CSc1nc2ccsc2c(=O)n1CC1CCC(C(=O)O)CC1 (stereo unspecified) |  | inactive: -1.42%
O=C(CCc1ccc(Oc2cc([N+](=O)[O-])cc([N+](=O)[O-])c2)cc1)Nc1cccc(Cl)c1 | inconclusive: 4.65 µM [inhibitor, partial curve] | 
Fc1ccc2nc(C(F)(F)F)cc(N3CCOCC3)c2c1 |  | inactive: 23.9%
CCOC(=O)C1CCN(c2nc3ccccc3nc2C(C#N)C(=O)OC(C)COC)CC1 (stereo unspecified) | inconclusive: 2.33 µM [inhibitor, single point] | 
O=C(c1ccc([N+](=O)[O-])o1)N1CCN(c2nc3ccc(F)cc3s2)CC1 | active: 1.17 µM | 
CCOC(=O)C(O)(c1cn(C)c2ccccc12)C(F)(F)F (stereo unspecified) | inconclusive: 13.1 µM [inhibitor, partial curve, poor fit] | 
CCOC(=O)c1nc(-c2ccc(OC)c(OC)c2)cnc1C#N |  | inactive: -2.32%
Cc1cc(-c2nnc(CCC(=O)N3CCN(Cc4cccnc4)CC3)o2)c(C)o1 | inconclusive: 11.7 µM [inhibitor, single point] | 
Cc1ccc(NC(=S)NNC(=S)Nc2cccc(C(F)(F)F)c2)cc1 | inconclusive: 9.28 µM [inhibitor, partial curve, poor fit] | 
COc1ccc(-c2csc(N(CCCN(C)C)C(=O)c3ccccc3C)n2)cc1 |  | inactive: -0.419%
COC(=O)c1c(NC(=O)CN2CCC3(O)CCCCC3C2c2cc(OC)ccc2OC)sc(C)c1C (stereo unspecified) | active: 10.4 µM | 
COc1ccc(NC(=O)Cc2ccsc2)cc1S(=O)(=O)N1CCCCC1 | inconclusive: 13.1 µM [inhibitor, single point] | 
COc1cccc(N2CCN(c3c4c(nc5ncnn35)CCC4)CC2)c1 | active: 13.1 µM | 
Cc1ccc(-n2c(O)c(C=Nc3ccc(S(N)(=O)=O)cc3)c(=O)[nH]c2=O)cc1 | inconclusive: 0.329 µM [inhibitor, full curve, poor fit] | 
